Source: the supplement of paper PMC11006884
The entries are a selection whose mix differs from that of the whole data set.

By UniProt entry, the sequences of proteins in these tests, tags left out. Where a name states a change or a piece, a line headed by the entry shows the natural chain unless it says otherwise.
UniProt Q6UB35, whole entry, looked up: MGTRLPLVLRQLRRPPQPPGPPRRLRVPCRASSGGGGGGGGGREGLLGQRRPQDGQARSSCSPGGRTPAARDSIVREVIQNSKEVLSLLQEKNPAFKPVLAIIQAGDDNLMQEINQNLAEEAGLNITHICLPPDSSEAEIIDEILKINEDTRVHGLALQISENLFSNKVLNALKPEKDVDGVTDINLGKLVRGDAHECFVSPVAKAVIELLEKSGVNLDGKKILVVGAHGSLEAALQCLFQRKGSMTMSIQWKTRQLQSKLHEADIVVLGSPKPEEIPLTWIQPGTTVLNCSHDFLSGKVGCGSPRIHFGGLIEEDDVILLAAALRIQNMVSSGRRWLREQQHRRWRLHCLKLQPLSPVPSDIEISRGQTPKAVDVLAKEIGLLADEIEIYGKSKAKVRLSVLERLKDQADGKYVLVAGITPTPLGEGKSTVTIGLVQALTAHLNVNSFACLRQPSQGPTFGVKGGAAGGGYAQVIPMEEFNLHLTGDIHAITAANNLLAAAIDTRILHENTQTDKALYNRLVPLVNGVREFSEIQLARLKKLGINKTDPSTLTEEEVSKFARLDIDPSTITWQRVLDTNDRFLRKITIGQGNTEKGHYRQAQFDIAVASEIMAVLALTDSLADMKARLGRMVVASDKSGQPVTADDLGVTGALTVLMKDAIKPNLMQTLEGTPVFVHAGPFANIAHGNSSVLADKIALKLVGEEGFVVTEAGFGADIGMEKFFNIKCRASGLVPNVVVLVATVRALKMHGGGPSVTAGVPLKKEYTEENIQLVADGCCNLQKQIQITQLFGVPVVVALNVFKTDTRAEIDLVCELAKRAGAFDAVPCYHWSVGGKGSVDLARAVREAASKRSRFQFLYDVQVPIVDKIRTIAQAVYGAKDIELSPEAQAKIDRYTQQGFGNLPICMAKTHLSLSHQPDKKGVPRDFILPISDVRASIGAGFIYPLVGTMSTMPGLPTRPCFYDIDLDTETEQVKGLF
UniProt Q68CP9, whole entry, looked up: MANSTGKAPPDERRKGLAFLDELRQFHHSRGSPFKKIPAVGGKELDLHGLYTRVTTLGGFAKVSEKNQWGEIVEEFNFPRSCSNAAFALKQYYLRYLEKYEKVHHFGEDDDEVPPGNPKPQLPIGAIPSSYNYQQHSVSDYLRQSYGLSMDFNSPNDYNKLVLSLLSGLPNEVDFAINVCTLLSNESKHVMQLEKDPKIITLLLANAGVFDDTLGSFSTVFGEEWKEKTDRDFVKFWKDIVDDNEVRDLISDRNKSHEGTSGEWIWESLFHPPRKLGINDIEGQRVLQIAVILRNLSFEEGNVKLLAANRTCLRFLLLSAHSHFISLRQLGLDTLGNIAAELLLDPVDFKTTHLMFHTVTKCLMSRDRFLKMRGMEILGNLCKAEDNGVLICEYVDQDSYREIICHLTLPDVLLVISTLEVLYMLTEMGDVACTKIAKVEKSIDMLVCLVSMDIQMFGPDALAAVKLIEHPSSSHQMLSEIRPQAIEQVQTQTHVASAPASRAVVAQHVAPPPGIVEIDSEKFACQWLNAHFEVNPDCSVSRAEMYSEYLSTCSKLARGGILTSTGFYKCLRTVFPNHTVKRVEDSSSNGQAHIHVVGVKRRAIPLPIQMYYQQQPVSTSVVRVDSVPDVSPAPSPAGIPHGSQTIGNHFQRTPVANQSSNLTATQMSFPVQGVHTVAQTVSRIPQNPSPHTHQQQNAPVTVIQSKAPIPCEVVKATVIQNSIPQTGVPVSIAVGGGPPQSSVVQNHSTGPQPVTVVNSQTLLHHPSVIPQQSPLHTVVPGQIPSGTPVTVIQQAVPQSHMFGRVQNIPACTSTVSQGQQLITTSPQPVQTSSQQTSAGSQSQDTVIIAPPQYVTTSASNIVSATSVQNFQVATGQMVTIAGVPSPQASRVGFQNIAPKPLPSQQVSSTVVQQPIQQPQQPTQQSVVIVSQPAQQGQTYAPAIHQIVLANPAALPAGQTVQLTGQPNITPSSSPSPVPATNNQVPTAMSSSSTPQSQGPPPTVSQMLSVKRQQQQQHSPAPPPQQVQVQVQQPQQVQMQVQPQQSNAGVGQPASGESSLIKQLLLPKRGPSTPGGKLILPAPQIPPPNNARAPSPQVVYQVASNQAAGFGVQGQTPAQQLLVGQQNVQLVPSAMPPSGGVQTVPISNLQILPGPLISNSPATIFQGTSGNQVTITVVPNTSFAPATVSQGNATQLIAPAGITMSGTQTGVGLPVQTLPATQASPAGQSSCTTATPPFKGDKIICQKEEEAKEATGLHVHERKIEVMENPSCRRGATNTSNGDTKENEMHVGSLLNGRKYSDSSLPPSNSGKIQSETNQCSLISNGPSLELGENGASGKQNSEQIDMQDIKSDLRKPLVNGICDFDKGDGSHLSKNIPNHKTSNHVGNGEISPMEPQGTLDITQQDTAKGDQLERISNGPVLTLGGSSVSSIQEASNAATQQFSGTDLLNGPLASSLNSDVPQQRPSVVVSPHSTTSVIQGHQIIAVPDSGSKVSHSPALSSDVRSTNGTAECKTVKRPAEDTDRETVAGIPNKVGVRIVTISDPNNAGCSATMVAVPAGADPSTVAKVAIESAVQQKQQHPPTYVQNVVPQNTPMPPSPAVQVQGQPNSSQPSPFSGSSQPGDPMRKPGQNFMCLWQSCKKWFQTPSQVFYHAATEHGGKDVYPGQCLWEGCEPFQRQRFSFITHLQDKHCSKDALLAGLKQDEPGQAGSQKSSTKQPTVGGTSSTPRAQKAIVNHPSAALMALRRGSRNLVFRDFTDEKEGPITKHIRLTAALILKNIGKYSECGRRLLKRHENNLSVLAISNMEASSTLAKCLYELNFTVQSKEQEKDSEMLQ
UniProt Q6PL18: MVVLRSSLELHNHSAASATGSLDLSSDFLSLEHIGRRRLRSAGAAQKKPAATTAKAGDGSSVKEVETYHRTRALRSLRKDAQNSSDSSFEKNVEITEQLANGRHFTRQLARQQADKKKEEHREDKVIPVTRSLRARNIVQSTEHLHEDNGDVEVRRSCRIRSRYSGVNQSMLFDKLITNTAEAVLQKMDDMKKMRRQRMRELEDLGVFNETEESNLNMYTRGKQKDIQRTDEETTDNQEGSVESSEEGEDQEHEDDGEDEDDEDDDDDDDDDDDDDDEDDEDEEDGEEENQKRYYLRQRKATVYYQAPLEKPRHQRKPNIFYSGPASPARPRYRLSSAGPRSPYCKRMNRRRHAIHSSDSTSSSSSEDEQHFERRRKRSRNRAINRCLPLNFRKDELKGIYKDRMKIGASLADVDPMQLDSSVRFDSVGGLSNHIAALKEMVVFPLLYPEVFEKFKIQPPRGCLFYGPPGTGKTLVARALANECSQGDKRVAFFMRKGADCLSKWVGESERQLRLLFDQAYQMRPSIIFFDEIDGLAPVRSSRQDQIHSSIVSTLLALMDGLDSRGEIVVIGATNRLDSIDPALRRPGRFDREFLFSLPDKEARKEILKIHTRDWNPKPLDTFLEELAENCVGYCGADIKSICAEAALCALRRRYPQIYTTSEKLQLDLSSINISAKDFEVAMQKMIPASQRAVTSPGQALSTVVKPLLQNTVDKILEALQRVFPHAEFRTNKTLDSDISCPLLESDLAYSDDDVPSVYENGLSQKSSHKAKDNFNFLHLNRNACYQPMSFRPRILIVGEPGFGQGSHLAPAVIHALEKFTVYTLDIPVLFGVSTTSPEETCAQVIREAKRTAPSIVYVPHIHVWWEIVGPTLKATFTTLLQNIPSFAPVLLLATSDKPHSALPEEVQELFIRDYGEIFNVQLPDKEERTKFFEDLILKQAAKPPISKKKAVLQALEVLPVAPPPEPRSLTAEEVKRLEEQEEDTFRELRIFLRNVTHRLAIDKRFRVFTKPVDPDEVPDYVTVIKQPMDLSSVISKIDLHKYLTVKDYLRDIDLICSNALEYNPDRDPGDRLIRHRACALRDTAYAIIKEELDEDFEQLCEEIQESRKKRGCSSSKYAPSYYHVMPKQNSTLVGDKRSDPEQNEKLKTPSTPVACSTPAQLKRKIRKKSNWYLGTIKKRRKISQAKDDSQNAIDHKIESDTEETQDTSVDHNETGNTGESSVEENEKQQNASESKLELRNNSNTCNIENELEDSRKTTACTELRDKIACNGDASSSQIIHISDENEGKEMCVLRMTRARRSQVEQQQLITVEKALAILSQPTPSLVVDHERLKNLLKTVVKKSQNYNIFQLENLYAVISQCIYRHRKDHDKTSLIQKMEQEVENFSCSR
UniProt Q6S8J3, whole entry, looked up: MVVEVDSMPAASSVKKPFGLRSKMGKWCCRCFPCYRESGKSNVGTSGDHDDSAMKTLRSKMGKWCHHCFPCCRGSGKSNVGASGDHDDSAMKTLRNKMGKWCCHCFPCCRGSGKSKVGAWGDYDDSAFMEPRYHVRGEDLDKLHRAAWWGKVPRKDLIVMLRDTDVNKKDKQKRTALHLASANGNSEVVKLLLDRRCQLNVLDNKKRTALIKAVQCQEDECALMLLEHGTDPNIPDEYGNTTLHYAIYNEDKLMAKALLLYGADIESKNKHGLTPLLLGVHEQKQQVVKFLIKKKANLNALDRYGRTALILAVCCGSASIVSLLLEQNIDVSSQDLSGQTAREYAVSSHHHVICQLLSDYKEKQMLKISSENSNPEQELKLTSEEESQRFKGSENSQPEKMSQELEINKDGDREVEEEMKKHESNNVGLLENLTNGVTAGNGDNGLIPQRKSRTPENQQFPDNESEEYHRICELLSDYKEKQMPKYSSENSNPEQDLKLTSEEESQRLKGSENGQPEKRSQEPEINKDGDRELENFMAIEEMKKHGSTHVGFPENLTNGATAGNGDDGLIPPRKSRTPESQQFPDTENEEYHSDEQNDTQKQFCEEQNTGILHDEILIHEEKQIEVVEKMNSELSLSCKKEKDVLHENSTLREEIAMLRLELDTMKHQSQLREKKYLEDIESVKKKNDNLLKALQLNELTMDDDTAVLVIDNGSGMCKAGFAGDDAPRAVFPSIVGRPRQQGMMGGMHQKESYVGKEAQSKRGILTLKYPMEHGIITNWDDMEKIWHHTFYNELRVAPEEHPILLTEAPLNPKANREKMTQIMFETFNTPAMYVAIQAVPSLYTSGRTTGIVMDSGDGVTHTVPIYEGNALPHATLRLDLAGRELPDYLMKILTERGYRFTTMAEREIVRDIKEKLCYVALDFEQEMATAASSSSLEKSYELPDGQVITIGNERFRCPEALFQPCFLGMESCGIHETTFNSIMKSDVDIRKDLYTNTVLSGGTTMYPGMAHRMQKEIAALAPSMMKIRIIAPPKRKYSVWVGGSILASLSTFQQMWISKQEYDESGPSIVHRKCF
UniProt Q68E01, whole entry, looked up: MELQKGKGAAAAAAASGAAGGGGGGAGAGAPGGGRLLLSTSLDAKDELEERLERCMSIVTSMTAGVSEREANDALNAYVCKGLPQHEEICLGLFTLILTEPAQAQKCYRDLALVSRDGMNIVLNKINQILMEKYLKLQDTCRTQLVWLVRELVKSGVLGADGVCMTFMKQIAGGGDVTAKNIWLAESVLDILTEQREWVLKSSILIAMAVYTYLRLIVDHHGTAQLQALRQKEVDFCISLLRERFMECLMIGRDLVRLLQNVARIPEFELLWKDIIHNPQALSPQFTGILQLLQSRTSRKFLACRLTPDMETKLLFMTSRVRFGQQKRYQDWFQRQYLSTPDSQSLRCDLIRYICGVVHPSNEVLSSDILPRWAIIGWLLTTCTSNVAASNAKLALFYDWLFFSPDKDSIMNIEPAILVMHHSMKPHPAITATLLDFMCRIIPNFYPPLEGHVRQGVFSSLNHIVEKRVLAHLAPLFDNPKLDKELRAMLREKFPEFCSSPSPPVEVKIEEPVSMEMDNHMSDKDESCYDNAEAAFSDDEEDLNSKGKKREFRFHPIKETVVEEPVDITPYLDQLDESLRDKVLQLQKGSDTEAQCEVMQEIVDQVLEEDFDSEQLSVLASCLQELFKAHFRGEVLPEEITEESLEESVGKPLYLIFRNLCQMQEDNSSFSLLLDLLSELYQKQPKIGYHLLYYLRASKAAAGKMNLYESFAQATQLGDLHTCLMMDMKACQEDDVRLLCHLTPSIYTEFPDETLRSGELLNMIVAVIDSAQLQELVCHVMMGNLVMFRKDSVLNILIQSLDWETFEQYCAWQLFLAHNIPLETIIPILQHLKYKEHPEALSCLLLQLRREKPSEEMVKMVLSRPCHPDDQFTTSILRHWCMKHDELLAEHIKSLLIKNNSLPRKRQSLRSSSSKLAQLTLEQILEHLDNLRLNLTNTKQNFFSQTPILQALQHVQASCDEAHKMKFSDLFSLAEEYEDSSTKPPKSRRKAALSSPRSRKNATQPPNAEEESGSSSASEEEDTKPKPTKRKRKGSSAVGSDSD
UniProt Q5HYI8: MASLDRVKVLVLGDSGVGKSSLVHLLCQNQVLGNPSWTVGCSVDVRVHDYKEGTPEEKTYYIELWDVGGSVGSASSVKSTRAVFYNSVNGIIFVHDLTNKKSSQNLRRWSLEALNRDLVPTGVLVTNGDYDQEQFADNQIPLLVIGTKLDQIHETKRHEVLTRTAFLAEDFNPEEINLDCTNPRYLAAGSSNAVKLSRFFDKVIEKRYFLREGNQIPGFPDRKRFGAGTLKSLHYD

compound: COC(=O)C#Cc1ccccc1 [methyl 3-phenylpropiolate]; experiment: log2 ratio of iodoacetamide-alkyne labeling of the cysteine site, DMSO over compound (competition); higher = stronger covalent engagement of the cysteine by the compound, active = 1 or more; settings: 500 µM; treatment time 1 h; system: HEK293T cell lysate
Method in brief: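 Three replicates, each with duplicate channels, were prepared from HEK293T lysate (2 mg/mL) treated with vehicle or electrophile at 500 µM for 1 h at ambient temperature. Iodoacetamide alkyne was then applied for 1 h, and samples were clicked to sCIP-TMT reagents, pooled, trypsin-digested overnight at 37 °C, enriched on streptavidin, acid-eluted and analysed on Orbitrap Eclipse LC-MS/MS with FAIMS, with FragPipe quantification. The log2 competition ratio per cysteine is the mean control-channel divided by the mean compound-channel reporter intensity. Cysteines quantified in only one replicate were left out.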

| Target | log2 ratio of iodoacetamide-alkyne labeling |
| --- | --- |
| UniProt Q5VSL9_C769 | inactive: 0.622 |
| UBR4 C1458 (UniProt Q5T4S7) | inactive: 0.138 |
| ZMYM4 C1264 (UniProt Q5VZL5) | inactive: 0.961 |
| UniProt Q6PJG6_C720 | inactive: 0.324 |
| FNBP1L C69 (UniProt Q5T0N5) | inactive: 0.181 |
| RRP12 C799 (UniProt Q5JTH9) | inactive: 0.107 |
| CEP170 C1049 (UniProt Q5SW79) | inactive: 0.346 |
| BEND3 C95 (UniProt Q5T5X7) | active: 1.11 |
| RIF1 C1692 (UniProt Q5UIP0) | inactive: 0.681 |
| LIN28B C201 (UniProt Q6ZN17) | inactive: 0.78 |
| MTHFD1L C779 (UniProt Q6UB35) | inactive: 0.893 |
| ARID2 C1319 (UniProt Q68CP9) | inactive: 0.463 |
| ATAD2 C631 (UniProt Q6PL18) | inactive: 0.934 |
| UniProt Q6S8J3_C965 | inactive: 0.0963 |
| UBAP2 C104 (UniProt Q5T6F2) | inactive: 0.602 |
| AARS2 C609 (UniProt Q5JTZ9) | inactive: 0.271 |
| CDCA2 C188 (UniProt Q69YH5) | inactive: 0.536 |
| CDKAL1 C6 (UniProt Q5VV42) | inactive: -0.0457 |
| PDE4DIP C617 (UniProt Q5VU43) | inactive: 0.321 |

Quoted from the listing.
log2 ratio of iodoacetamide-alkyne labeling with CDKAL1 C6 (UniProt Q5VV42) is entered as inactive: -0.0457
log2 ratio of iodoacetamide-alkyne labeling with AARS2 C609 (UniProt Q5JTZ9) is entered as inactive: 0.271

Following part.

| Target | log2 ratio of iodoacetamide-alkyne labeling |
| --- | --- |
| CTR9 C511 (UniProt Q6PD62) | inactive: 0.0657 |
| EARS2 C341 (UniProt Q5JPH6) | inactive: 0.0779 |
| UniProt Q5VWQ0_C671 | inactive: 0.327 |
| INTS3 C866 (UniProt Q68E01) | inactive: 0.2 |
| FIP1L1 C216 (UniProt Q6UN15) | inactive: 0.00352 |
| UBR4 C1450 (UniProt Q5T4S7) | inactive: 0.138 |
| PRPF8 C2144 (UniProt Q6P2Q9) | inactive: 0.243 |
| ZC3H14 C261 (UniProt Q6PJT7) | inactive: 0.396 |
| ARID2 C1512 (UniProt Q68CP9) | inactive: 0.438 |
| ARID2 C1549 (UniProt Q68CP9) | inactive: 0.434 |
| NADSYN1 C309 (UniProt Q6IA69) | inactive: 0.107 |
| NIPBL C573 (UniProt Q6KC79) | inactive: 0.479 |
| RABL3 C180 (UniProt Q5HYI8) | inactive: 0.17 |
| FAM199X C235 (UniProt Q6PEV8) | inactive: 0.0217 |
| GIGYF2 C938 (UniProt Q6Y7W6) | inactive: 0.268 |
| UniProt Q5JSZ5_C1610 | inactive: 0.32 |
| IQSEC1 C906 (UniProt Q6DN90) | inactive: 0.413 |
| UniProt Q5TAX3_C994 | inactive: 0.216 |
